According to patent US20250388673A1:

These binders were tested against cynomolgus BTLA (cynomolgus monkey) (assay: flow cytometry, Expi293 cells overexpressing cynomolgus BTLA).

| Binder | binding |
| --- | --- |
| HFB6-4hz21-hG1 (antibody, human IgG1, V domains shown) VH: EVQLVESGGGLVQPGRSLRLSCTTSGFNIKDTYIHWFRQAPGKGLEWVGRNDPANGNTKYTASFKGRATISADGSKSIAYLQMNSLKTEDTAVYYCASYEGYYERFGYWGQGTLVTVSS VL: DIVMTQSPDSLAVSLGERATINCKSSQSLLDRDGKTYLNWLQQKPGQSPKRLIYLVSKLDSGVPDRFSGSGSGTDFTLTISSLQAEDLAVYYCWQDTHFPYTFGQGTKLEIK | binds |
| HFB6-4hz24-hG1 (antibody, human IgG1, V domains shown) VH: EVQLVQSGAEVKKPGESLKISCKTSGFNIKDTYIHWVRQMPGKGLEWIGRNDPANGNTKYSPSFQGQVTISADKSISTAYLQLSSLKASDTAMYYCASYEGYYERFGYWGQGTLVTVSS VL: DIVMTQSPDSLAVSLGERATINCKSSQSLLDRDGKTYLNWLQQKPGQSPKRLIYLVSKLDSGVPDRFSGSGSGTDFTLTISSLQAEDLAVYYCWQDTHFPYTFGQGTKLEIK | binds |
| HFB6-4hz22-hG1 (antibody, human IgG1, V domains shown) VH: EVQLVESGGGLVQPGGSLKLSCATSGFNIKDTYIHWVRQASGKGLEWIGRNDPANGNTKYAASFKGRATISADDSKNTAYLQLNSLKTEDTAVYYCASYEGYYERFGYWGQGTLVTVSS VL: DIVMTQSPDSLAVSLGERATINCKSSQSLLDRDGKTYLNWLQQKPGQSPKRLIYLVSKLDSGVPDRFSGSGSGTDFTLTISSLQAEDLAVYYCWQDTHFPYTFGQGTKLEIK | binds |
| HFB6-4hz23-hG1 (antibody, human IgG1, V domains shown) VH: QVQLQESGPGLVKPSGTLSLTCAVSGFNIKDTYIHWVRQPPGKGLEWIGRNDPANGNTKYNPSFKSRATISADKSKNQASLKLSSVTAADTAVYYCASYEGYYERFGYWGQGTLVTVSS VL: DIVMTQSPDSLAVSLGERATINCKSSQSLLDRDGKTYLNWLQQKPGQSPKRLIYLVSKLDSGVPDRFSGSGSGTDFTLTISSLQAEDLAVYYCWQDTHFPYTFGQGTKLEIK | binds |
| HFB6-5hz1-hG1 (antibody, human IgG1, V domains shown) VH: QVQLVQSGAEVKKPGSSVKVSCKASGVNIKDTYMYWVRQAPGQGLEWIGRIDPANGYARYAQKFQGRATITADESTSTAYMELSSLRSEDTAVYYCAVYDGYYESFDVWGQGTLVTVSS VL: DIQMTQSPSSLSASVGDRVTITCRSSQSLLDSDGKSYLNWLQQKPGKAPKRLIYLVSKLDSGVPSRFSGSGSGTDFTLTISSLQPEDFATYYCWQGTLFPRTFGQGTKLEIK | binds |
| HFB6-4hz1-hG1 (antibody, V domains shown) VH: QVQLVQSGAEVKKPGSSVKVSCKTSGFNIKDTYIHWVRQAPGQGLEWIGRNDPANGNTKYAQKFQGRATITADESTSTAYMELSSLRSEDTAVYYCASYEGYYERFGYWGQGTLVTVSS VL: DIQMTQSPSSLSASVGDRVTITCRSSQSLLDRDGKSYLNWLQQKPGKAPKRLIYLVSKLDSGVPSRFSGSGSGTDFTLTISSLQPEDFATYYCWQDTHFPYTFGQGTKLEIK | binds |
| HFB6-5hz5-hG1 (antibody, human IgG1, V domains shown) VH: QVQLQESGPGLVKPSGTLSLTCAASGVNIKDTYMYWVRQPPGKGLEWIGRIDPANGYTRYNPSFKSRATISADKSKNQASLKLSSVTAADTAVYYCAVYDGYYESFDVWGQGTLVTVSS VL: DIQMTQSPSSLSASVGDRVTITCRSSQSLLDSDGKSYLNWLQQKPGKAPKRLIYLVSKLDSGVPSRFSGSGSGTDFTLTISSLQPEDFATYYCWQGTLFPRTFGQGTKLEIK | binds |
| HFB6-5hz3-hG1 (antibody, human IgG1, V domains shown) VH: EVQLVESGGGLVQPGRSLRLSCTASGVNIKDTYMYWVRQAPGKGLEWVGRIDPANGYTRYTASFKGRATISADGSKSIAYLQMNSLKTEDTAVYYCAVYDGYYESFDVWGQGTLVTVSS VL: DIQMTQSPSSLSASVGDRVTITCRSSQSLLDSDGKSYLNWLQQKPGKAPKRLIYLVSKLDSGVPSRFSGSGSGTDFTLTISSLQPEDFATYYCWQGTLFPRTFGQGTKLEIK | binds |
| HFB6-5hz6-hG1 (antibody, human IgG1, V domains shown) VH: EVQLVQSGAEVKKPGESLKISCKGSGVNIKDTYMYWVRQMPGKGLEWIGRIDPANGYTRYSPSFQGQVTISADKSISTAYLQLSSLKASDTAMYYCAVYDGYYESFDVWGQGTLVTVSS VL: DIQMTQSPSSLSASVGDRVTITCRSSQSLLDSDGKSYLNWLQQKPGKAPKRLIYLVSKLDSGVPSRFSGSGSGTDFTLTISSLQPEDFATYYCWQGTLFPRTFGQGTKLEIK | binds |
| HFB6-5hz2-hG1 (antibody, human IgG1, V domains shown) VH: QVQLVQSGAEVKKPGASVKVSCKASGVNIKDTYMYWVRQAPGQGLEWIGRIDPANGYTRYAQKFQGRATITADTSTSTVYMELSSLRSEDTAVYYCAVYDGYYESFDVWGQGTLVTVSS VL: DIQMTQSPSSLSASVGDRVTITCRSSQSLLDSDGKSYLNWLQQKPGKAPKRLIYLVSKLDSGVPSRFSGSGSGTDFTLTISSLQPEDFATYYCWQGTLFPRTFGQGTKLEIK | binds |
| HFB6-5hz4-hG1 (antibody, human IgG1, V domains shown) VH: EVQLVESGGGLVQPGGSLKLSCAASGVNIKDTYMYWVRQASGKGLEWIGRIDPANGYTRYAASFKGRATISADDSKNTAYLQLNSLKTEDTAVYYCAVYDGYYESFDVWGQGTLVTVSS VL: DIQMTQSPSSLSASVGDRVTITCRSSQSLLDSDGKSYLNWLQQKPGKAPKRLIYLVSKLDSGVPSRFSGSGSGTDFTLTISSLQPEDFATYYCWQGTLFPRTFGQGTKLEIK | binds |

The next lines start with the values.

| binding | Binder |
| --- | --- |
| binds | HFB6-5hz17-hG1 (antibody, human IgG1, V domains shown) VH: QVQLQESGPGLVKPSGTLSLTCAASGVNIKDTYMYWVRQPPGKGLEWIGRIDPANGYTRYNPSFKSRATISADKSKNQASLKLSSVTAADTAVYYCAVYDGYYESFDVWGQGTLVTVSS VL: EIVLTQSPGTLSVSPGERATISCRSSQSLLDSDGKTYLNWLQQKPGQAPRRLIYLVSKRDTGVPDRFSGSGSGTDFTLTISRVEPEDFAVYYCWQGTLFPRTFGQGTKLEIK |
| binds | HFB6-5hz9-hG1 (antibody, human IgG1, V domains shown) VH: EVQLVESGGGLVQPGRSLRLSCTASGVNIKDTYMYWVRQAPGKGLEWVGRIDPANGYTRYTASFKGRATISADGSKSIAYLQMNSLKTEDTAVYYCAVYDGYYESFDVWGQGTLVTVSS VL: DVVMTQSPLSLPVTLGQPASISCRSSQSLLDSDGKTYLNWLQQRPGQSPRRLIYLVSKRDSGVPDRFSGSGSGTDFTLKISRVEAEDLGVYYCWQGTLFPRTFGQGTKLEIK |
| binds | HFB6-5hz15-hG1 (antibody, human IgG1, V domains shown) VH: EVQLVESGGGLVQPGRSLRLSCTASGVNIKDTYMYWVRQAPGKGLEWVGRIDPANGYTRYTASFKGRATISADGSKSIAYLQMNSLKTEDTAVYYCAVYDGYYESFDVWGQGTLVTVSS VL: EIVLTQSPGTLSVSPGERATISCRSSQSLLDSDGKTYLNWLQQKPGQAPRRLIYLVSKRDTGVPDRFSGSGSGTDFTLTISRVEPEDFAVYYCWQGTLFPRTFGQGTKLEIK |
| binds | HFB6-5hz11-hG1 (antibody, human IgG1, V domains shown) VH: QVQLQESGPGLVKPSGTLSLTCAASGVNIKDTYMYWVRQPPGKGLEWIGRIDPANGYTRYNPSFKSRATISADKSKNQASLKLSSVTAADTAVYYCAVYDGYYESFDVWGQGTLVTVSS VL: DVVMTQSPLSLPVTLGQPASISCRSSQSLLDSDGKTYLNWLQQRPGQSPRRLIYLVSKRDSGVPDRFSGSGSGTDFTLKISRVEAEDLGVYYCWQGTLFPRTFGQGTKLEIK |
| binds | HFB6-5hz12-hG1 (antibody, human IgG1, V domains shown) VH: EVQLVQSGAEVKKPGESLKISCKGSGVNIKDTYMYWVRQMPGKGLEWIGRIDPANGYTRYSPSFQGQVTISADKSISTAYLQLSSLKASDTAMYYCAVYDGYYESFDVWGQGTLVTVSS VL: DVVMTQSPLSLPVTLGQPASISCRSSQSLLDSDGKTYLNWLQQRPGQSPRRLIYLVSKRDSGVPDRFSGSGSGTDFTLKISRVEAEDLGVYYCWQGTLFPRTFGQGTKLEIK |
| binds | HFB6-5hz16-hG1 (antibody, human IgG1, V domains shown) VH: EVQLVESGGGLVQPGGSLKLSCAASGVNIKDTYMYWVRQASGKGLEWIGRIDPANGYTRYAASFKGRATISADDSKNTAYLQLNSLKTEDTAVYYCAVYDGYYESFDVWGQGTLVTVSS VL: EIVLTQSPGTLSVSPGERATISCRSSQSLLDSDGKTYLNWLQQKPGQAPRRLIYLVSKRDTGVPDRFSGSGSGTDFTLTISRVEPEDFAVYYCWQGTLFPRTFGQGTKLEIK |
| binds | HFB6-5hz10-hG1 (antibody, human IgG1, V domains shown) VH: EVQLVESGGGLVQPGGSLKLSCAASGVNIKDTYMYWVRQASGKGLEWIGRIDPANGYTRYAASFKGRATISADDSKNTAYLQLNSLKTEDTAVYYCAVYDGYYESFDVWGQGTLVTVSS VL: DVVMTQSPLSLPVTLGQPASISCRSSQSLLDSDGKTYLNWLQQRPGQSPRRLIYLVSKRDSGVPDRFSGSGSGTDFTLKISRVEAEDLGVYYCWQGTLFPRTFGQGTKLEIK |
| binds | HFB6-5hz13-hG1 (antibody, human IgG1, V domains shown) VH: QVQLVQSGAEVKKPGSSVKVSCKASGVNIKDTYMYWVRQAPGQGLEWIGRIDPANGYARYAQKFQGRATITADESTSTAYMELSSLRSEDTAVYYCAVYDGYYESFDVWGQGTLVTVSS VL: EIVLTQSPGTLSVSPGERATISCRSSQSLLDSDGKTYLNWLQQKPGQAPRRLIYLVSKRDTGVPDRFSGSGSGTDFTLTISRVEPEDFAVYYCWQGTLFPRTFGQGTKLEIK |
| binds | HFB6-5hz14-hG1 (antibody, human IgG1, V domains shown) VH: QVQLVQSGAEVKKPGASVKVSCKASGVNIKDTYMYWVRQAPGQGLEWIGRIDPANGYTRYAQKFQGRATITADTSTSTVYMELSSLRSEDTAVYYCAVYDGYYESFDVWGQGTLVTVSS VL: EIVLTQSPGTLSVSPGERATISCRSSQSLLDSDGKTYLNWLQQKPGQAPRRLIYLVSKRDTGVPDRFSGSGSGTDFTLTISRVEPEDFAVYYCWQGTLFPRTFGQGTKLEIK |
| binds | HFB6-5hz8-hG1 (antibody, human IgG1, V domains shown) VH: QVQLVQSGAEVKKPGASVKVSCKASGVNIKDTYMYWVRQAPGQGLEWIGRIDPANGYTRYAQKFQGRATITADTSTSTVYMELSSLRSEDTAVYYCAVYDGYYESFDVWGQGTLVTVSS VL: DVVMTQSPLSLPVTLGQPASISCRSSQSLLDSDGKTYLNWLQQRPGQSPRRLIYLVSKRDSGVPDRFSGSGSGTDFTLKISRVEAEDLGVYYCWQGTLFPRTFGQGTKLEIK |
| binds | HFB6-5hz7-hG1 (antibody, human IgG1, V domains shown) VH: QVQLVQSGAEVKKPGSSVKVSCKASGVNIKDTYMYWVRQAPGQGLEWIGRIDPANGYARYAQKFQGRATITADESTSTAYMELSSLRSEDTAVYYCAVYDGYYESFDVWGQGTLVTVSS VL: DVVMTQSPLSLPVTLGQPASISCRSSQSLLDSDGKTYLNWLQQRPGQSPRRLIYLVSKRDSGVPDRFSGSGSGTDFTLKISRVEAEDLGVYYCWQGTLFPRTFGQGTKLEIK |

These are yes or no findings as the source states them, for the method shown. Binding can be weak; no strength is given.
